No constants are given. Whether binding was seen depends on the method and setting. Binding seen in cells or lysates may run through a third protein. A result given as binding can be weak or reduced; the word gives no strength.

The chains behind the UniProt entries cited, without tags or fusion partners. Where a name states a change or a piece, a line headed by the entry shows the natural chain unless it says otherwise.
UniProt Q9BRQ8: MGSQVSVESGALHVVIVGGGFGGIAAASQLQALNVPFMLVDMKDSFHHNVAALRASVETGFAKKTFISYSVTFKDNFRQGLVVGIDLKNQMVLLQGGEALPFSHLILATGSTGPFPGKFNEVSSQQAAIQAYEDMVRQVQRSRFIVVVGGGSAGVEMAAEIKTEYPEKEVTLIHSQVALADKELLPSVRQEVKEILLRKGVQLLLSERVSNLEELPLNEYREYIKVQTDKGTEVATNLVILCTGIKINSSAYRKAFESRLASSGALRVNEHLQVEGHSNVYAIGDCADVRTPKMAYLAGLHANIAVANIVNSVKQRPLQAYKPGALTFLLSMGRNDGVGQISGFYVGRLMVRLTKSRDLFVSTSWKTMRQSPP
UniProt P19474: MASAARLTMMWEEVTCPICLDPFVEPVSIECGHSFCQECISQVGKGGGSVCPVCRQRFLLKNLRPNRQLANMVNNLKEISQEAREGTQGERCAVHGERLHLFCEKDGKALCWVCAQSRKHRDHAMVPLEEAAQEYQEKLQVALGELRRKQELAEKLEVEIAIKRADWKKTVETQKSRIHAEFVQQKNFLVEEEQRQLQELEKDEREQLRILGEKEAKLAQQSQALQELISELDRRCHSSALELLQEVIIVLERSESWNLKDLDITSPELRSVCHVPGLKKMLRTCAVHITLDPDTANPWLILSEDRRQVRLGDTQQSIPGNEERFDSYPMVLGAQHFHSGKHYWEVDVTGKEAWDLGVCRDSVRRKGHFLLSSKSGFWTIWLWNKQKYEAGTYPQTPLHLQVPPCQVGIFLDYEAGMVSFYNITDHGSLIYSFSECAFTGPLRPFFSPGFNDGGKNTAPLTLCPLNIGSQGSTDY

In this assay the target is GST-FSP1 (human) (UniProt Q9BRQ8). The assay can be described thus: pull-down; GST, GST-FSP1 or GST-TRIM21 from bacteria on GST magnetic beads, incubated with cell lysate at 4 °C overnight; 50 mM Tris-HCl pH 7.4, 0.5% NP-40, 1 mM EDTA, 150 mM NaCl; immunoblot; only the target purified. Background: A western blot detects proteins with antibodies after separation by electrophoresis.

Regarding “TRIM21 of the cell lysate used in the GST pull-down (from UniProt P19474 1-475)”, the binding result is listed as “binds”.
